Experimental data as given in the supplement of paper PMC12819154, “High-throughput peptide-centric local stability assay extends protein–ligand identification to membrane proteins, tissues and bacteria” (Nature Structural & Molecular Biology, 2025).
Some of the results follow. Most entries show no effect beyond the scatter of the controls.

Chains of the proteins cited; added tags and fusions are not shown. Lines headed by an entry give the natural chain unless they say otherwise; changes in a name come on top.
UniProt Q96EL1: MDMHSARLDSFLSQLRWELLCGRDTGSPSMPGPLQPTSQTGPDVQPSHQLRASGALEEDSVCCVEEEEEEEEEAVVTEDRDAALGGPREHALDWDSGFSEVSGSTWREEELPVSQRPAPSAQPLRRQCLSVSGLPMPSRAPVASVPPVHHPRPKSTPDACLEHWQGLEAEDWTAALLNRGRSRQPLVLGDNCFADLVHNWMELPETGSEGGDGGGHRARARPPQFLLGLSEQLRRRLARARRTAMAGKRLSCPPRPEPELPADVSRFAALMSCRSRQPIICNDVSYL
UniProt Q92913: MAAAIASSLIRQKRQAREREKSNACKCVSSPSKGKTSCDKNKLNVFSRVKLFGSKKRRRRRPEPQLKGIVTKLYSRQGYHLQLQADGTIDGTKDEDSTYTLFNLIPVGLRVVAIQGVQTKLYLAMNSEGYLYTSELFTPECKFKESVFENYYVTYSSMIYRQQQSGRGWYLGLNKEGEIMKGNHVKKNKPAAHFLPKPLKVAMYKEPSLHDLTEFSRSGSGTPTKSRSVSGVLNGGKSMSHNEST
UniProt Q96FF9: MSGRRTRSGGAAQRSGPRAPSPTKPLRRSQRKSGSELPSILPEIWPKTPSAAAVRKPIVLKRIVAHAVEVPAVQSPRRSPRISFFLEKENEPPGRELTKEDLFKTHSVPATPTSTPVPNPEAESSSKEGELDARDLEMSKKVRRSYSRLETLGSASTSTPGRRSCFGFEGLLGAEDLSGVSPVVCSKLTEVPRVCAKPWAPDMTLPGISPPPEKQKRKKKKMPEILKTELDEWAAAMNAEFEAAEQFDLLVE
UniProt Q96F85: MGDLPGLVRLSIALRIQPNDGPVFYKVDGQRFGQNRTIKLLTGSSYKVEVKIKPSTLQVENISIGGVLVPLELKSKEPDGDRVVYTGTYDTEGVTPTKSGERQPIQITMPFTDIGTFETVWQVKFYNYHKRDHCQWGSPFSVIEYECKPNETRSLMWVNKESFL
UniProt Q96GC6: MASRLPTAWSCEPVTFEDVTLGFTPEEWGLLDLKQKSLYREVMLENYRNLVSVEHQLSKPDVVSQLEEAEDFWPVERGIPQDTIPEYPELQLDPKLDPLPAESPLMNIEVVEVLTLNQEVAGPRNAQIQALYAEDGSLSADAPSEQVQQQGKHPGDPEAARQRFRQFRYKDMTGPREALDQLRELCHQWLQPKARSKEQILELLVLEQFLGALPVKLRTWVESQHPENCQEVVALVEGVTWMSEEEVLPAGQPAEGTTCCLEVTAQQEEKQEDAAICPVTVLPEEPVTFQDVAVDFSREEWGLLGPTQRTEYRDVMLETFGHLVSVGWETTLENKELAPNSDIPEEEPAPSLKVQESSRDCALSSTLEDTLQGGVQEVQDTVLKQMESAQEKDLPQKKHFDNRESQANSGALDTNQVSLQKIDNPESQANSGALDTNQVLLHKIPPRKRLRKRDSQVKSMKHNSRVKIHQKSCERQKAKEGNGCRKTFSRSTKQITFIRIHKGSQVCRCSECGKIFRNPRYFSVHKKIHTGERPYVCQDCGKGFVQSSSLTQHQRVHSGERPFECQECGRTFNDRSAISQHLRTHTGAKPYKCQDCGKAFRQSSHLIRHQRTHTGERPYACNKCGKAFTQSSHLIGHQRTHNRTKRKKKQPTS
UniProt Q96AE4: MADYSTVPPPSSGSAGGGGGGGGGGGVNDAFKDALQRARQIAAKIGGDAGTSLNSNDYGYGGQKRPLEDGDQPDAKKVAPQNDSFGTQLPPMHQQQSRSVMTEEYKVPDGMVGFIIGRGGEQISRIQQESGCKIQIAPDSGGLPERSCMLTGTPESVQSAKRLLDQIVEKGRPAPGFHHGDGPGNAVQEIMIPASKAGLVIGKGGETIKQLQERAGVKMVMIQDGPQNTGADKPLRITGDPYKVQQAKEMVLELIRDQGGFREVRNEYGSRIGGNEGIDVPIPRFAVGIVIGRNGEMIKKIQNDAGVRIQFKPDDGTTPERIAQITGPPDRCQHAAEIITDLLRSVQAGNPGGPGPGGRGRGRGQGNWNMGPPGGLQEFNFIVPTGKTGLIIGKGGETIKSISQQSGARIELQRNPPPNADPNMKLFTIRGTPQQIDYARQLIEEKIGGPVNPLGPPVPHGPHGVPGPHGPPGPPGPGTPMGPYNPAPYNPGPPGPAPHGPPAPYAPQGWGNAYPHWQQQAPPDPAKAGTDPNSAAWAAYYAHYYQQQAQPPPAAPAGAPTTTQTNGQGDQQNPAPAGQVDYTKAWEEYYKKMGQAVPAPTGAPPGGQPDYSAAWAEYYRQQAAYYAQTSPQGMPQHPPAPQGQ
UniProt Q92834: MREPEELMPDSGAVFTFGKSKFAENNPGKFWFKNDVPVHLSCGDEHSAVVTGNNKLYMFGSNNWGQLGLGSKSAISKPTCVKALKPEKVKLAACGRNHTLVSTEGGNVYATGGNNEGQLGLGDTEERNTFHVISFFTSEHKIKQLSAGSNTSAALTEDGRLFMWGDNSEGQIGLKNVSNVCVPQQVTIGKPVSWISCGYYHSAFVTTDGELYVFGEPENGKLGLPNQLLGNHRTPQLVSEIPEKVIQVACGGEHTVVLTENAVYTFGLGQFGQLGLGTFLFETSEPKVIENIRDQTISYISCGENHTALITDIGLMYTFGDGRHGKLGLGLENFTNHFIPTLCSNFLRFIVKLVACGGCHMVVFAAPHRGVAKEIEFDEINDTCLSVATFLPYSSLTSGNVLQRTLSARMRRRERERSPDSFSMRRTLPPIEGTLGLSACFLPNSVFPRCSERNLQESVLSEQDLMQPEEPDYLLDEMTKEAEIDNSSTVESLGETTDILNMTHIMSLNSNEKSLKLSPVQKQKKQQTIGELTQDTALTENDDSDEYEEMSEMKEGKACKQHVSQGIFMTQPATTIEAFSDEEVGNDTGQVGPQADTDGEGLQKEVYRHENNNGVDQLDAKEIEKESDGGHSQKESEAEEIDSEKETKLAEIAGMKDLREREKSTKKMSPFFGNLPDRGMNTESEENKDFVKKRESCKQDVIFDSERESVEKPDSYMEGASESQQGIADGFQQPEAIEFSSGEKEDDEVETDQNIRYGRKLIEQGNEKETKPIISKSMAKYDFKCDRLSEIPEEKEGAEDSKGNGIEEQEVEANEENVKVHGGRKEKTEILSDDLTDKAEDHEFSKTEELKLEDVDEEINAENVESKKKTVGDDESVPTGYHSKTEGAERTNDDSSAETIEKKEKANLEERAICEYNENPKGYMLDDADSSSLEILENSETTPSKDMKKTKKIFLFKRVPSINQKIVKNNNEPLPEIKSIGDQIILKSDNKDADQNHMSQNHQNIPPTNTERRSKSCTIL
UniProt Q93073: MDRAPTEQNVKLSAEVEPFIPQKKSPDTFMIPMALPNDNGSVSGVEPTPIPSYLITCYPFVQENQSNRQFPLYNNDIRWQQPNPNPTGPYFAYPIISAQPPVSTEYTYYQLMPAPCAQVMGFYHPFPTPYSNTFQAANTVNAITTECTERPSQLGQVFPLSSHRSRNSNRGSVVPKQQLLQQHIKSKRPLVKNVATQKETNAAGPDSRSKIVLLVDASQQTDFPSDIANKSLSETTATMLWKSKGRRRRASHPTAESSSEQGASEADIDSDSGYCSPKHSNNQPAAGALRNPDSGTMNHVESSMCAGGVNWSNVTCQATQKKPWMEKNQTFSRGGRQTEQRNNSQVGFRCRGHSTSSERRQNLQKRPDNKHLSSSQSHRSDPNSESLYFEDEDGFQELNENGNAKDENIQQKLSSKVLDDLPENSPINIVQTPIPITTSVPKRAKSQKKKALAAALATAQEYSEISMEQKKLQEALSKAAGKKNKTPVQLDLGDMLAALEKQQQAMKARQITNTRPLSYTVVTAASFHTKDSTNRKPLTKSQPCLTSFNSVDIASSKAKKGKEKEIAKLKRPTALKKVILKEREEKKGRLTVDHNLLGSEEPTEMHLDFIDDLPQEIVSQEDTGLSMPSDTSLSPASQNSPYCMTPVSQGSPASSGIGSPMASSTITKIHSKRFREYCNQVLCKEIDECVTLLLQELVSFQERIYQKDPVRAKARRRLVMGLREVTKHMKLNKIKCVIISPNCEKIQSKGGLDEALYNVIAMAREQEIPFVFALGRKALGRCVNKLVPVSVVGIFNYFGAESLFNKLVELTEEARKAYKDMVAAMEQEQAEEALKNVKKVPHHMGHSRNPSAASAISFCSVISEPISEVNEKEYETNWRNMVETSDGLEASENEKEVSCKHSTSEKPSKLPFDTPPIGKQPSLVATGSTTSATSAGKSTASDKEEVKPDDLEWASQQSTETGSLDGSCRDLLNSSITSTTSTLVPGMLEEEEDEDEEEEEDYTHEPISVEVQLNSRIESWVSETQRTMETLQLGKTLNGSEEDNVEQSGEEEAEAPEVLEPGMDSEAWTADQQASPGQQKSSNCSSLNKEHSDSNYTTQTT
UniProt Q96E35: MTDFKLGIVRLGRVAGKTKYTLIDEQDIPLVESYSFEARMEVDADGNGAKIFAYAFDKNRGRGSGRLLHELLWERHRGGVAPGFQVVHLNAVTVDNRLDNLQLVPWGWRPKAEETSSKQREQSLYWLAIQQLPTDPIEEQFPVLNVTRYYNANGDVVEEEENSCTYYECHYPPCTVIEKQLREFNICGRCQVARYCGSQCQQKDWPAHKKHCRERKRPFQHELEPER

What follows are targets tested with CN[C@@H]1C[C@H]2O[C@@](C)([C@@H]1OC)n1c3ccccc3c3c4c(c5c6ccccc6n2c5c31)C(=O)NC4 [staurosporine] (assay: log2 fold change of tryptic peptide abundance, ligand vs vehicle (limited proteolysis) (log2 ratio); higher = more trypsin-susceptible (destabilized)). Conditions: ligand concentration: 20 uM; sample: K562 cleared lysate; digestion: 4 min, 22 C (HT-PELSA RT4min, Orbitrap Astral).
With “UniProt Q96EL1 (peptide sequence: LSCPPRPEPELPADVSR, peptide start residue: 250)” the log2 fold change was 0.182. “FGF13 (peptide sequence: SMSHNEST, peptide start residue: 238) (UniProt Q92913)” gave a log2 fold change of 0.137. For “CDCA5 (peptide sequence: RIVAHAVEVPAVQSPR, peptide start residue: 62) (UniProt Q96FF9)”, the log2 fold change was -0.328. “CNRIP1 (peptide sequence: GDLPGLVR, peptide start residue: 2) (UniProt Q96F85)” gave a log2 fold change of 0.218. For “UniProt Q96GC6 (peptide sequence: ESQANSGALDTNQVSLQK, peptide start residue: 404)”, the log2 fold change was -0.676. Work on “FUBP1 (peptide sequence: GTPQQIDYAR, peptide start residue: 431) (UniProt Q96AE4)” yielded a log2 fold change of 0.139. Target “RPGR (peptide sequence: TNDDSSAETIEKK, peptide start residue: 891) (UniProt Q92834)” has a log2 fold change of -0.498. In the case of “SECISBP2L (peptide sequence: GGLDEALYNVIAMAR, peptide start residue: 750) (UniProt Q93073)”, the log2 fold change is reported as -0.525. Work on “ZMYND19 (peptide sequence: LDNLQLVPWGWRPK, peptide start residue: 98) (UniProt Q96E35)” yielded a log2 fold change of -0.133.
